Assay results published in PMC12607013.
Numbering of substitutions follows the chain as printed. Results are given in words; binding and its absence hold for the method and conditions named. In cells and extracts the contact can be indirect. Some entries that bind do so weakly or less than the wild type. Where a sequence is shown, tags or fusion partners need not be part of it.

Protein sequences, listed by entry. Tags and fused reporters are not part of them.
UniProt Q93009: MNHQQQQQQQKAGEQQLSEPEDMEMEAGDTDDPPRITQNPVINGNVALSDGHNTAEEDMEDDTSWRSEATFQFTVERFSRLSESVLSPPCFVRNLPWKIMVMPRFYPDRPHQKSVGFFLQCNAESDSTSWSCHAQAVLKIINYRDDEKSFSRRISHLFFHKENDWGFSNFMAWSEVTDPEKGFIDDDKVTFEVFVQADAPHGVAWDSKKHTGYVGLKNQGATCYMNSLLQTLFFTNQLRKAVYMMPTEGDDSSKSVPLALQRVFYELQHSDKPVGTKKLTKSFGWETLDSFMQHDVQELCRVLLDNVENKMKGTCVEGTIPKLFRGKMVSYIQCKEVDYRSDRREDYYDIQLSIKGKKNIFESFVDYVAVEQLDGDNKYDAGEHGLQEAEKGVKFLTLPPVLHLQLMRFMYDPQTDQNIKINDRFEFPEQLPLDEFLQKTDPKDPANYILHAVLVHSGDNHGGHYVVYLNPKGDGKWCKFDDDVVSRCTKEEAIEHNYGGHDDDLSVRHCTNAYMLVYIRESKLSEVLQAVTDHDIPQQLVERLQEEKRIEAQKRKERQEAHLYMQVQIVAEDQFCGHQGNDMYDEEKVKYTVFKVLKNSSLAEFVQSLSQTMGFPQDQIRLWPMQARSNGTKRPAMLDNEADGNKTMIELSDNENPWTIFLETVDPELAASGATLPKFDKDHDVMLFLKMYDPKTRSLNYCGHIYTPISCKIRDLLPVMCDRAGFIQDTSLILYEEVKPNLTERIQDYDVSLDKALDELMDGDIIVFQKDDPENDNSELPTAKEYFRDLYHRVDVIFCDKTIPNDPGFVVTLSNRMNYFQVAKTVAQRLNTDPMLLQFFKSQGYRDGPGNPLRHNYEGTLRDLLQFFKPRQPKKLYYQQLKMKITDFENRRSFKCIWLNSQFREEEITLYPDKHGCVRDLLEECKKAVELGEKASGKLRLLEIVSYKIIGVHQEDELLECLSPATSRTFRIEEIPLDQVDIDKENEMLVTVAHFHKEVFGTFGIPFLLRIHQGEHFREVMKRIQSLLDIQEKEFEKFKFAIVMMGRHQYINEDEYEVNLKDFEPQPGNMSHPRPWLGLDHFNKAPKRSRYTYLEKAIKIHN

Columns and labels:
[1] = molecular target: T1, FLAG-tagged full-length OTUD4 (ovarian tumor family deubiquitinase 4), WT (human) (UniProt Q01804); experiment: co-IP; HEK293T cells transfected with the indicated plasmids, 48 to 72 h; clarified lysates incubated overnight at 4 °C with anti-FLAG M2-agarose or anti-HA-agarose beads; Western blot
T1 sequence: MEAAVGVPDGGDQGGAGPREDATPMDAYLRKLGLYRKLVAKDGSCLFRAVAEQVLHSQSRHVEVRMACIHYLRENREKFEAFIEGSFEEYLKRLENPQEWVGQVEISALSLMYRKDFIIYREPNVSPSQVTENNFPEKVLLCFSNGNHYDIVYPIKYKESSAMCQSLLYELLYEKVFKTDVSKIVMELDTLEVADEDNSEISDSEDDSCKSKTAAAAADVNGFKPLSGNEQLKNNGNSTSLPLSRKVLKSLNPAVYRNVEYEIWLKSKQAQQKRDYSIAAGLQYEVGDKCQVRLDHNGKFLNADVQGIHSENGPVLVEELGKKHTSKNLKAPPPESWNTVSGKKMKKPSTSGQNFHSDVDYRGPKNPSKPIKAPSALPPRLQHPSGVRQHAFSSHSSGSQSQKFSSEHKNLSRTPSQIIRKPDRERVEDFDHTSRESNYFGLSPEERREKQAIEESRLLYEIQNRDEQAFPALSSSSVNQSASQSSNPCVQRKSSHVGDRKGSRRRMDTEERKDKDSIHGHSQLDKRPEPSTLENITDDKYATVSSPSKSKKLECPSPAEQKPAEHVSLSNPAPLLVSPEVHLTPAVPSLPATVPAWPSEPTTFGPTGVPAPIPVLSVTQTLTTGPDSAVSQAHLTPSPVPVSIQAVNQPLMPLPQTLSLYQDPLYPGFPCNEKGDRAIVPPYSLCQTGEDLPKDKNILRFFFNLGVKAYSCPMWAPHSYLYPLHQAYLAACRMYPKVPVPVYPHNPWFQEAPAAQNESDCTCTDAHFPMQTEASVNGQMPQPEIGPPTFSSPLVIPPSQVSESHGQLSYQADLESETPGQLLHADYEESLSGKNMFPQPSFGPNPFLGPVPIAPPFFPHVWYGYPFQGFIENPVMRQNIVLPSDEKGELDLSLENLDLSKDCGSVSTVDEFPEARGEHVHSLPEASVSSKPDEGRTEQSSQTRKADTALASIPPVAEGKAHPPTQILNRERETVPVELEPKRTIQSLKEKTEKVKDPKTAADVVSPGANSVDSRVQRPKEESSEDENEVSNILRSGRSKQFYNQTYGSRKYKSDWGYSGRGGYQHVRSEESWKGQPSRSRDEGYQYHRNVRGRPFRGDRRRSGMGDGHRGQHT

[2] = molecular target: T2, FLAG-tagged full-length OTUD4 C45A (active-site mutant) (human) (UniProt Q01804); experiment: as above
T2 sequence: T1 sequence with C45A

USP7 (from UniProt Q93009 1-1102) (enzyme)
binding [1]: binds | binding [2]: binds
